Measurements published in patent publication US20110003898A1, “MEDICAL GLUES FOR SURGERY COMPRISING BIOACTIVE COMPOUNDS” (Bayer MaterialScience AG, priority 2008, published 2011).

Assay: In vitro bonding of muscular tissue, adhesive strength by pulling
Conditions: adhesive with 2-5% active ingredient on meat, pulling after 4 min; ^2 = suspension

Compound	Adhesive strengths [after 4 min]
CC(=O)Oc1ccccc1C(=O)O [acetylsalicylic acid]	++
COc1cccc(C2(O)CCCCC2CN(C)C)c1 (stereo not shown) [tramadol]	++
CN(C)CCC=C1c2ccccc2CCc2ccccc21 [amitriptyline]	++
CC(=O)NS(=O)(=O)c1ccc(N)cc1 [sulfacetamide]	++
O=C1OC(CN2CCOCC2)CN1/N=C/c1ccc([N+](=O)[O-])o1 (stereo not shown) [furaldatone]	+
CCOC(=O)c1ccc(N)cc1 [benzocaine]	+
CCN(CC)CC(=O)Nc1c(C)cccc1C [lidocaine]	++
CCCCNc1ccc(C(=O)OCCN(C)C)cc1 [tetracaine]	+
COc1ccc2c(c1)c(CC(=O)OCC(=O)O)c(C)n2C(=O)c1ccc(Cl)cc1 [acemetacine]	+
CC(=O)Nc1ccc(O)cc1 [paracetamol]	+
Cc1ncc([N+](=O)[O-])n1CCO [metronidazole]	++
OC(Cn1cncn1)(Cn1cncn1)c1ccc(F)cc1F [fluconazole]	[3]
[H]/N=C(\N/C(=N/[H])NCCCCCCNC(=N)NC(=N)Nc1ccc(Cl)cc1)Nc1ccc(Cl)cc1 [chlorhexidine]	++
C[C@]12CCC(=O)C=C1CC[C@@H]1[C@@H]2C(=O)C[C@@]2(C)[C@H]1CC[C@]2(O)C(=O)CO [cortisone]	++
CC(C)Cc1ccc(C(C)C(=O)O)cc1 (stereo not shown) [ibuprofen]	++
CCN1CCN(c2cc3c(cc2F)c(=O)c(C(=O)O)cn3C2CC2)CC1 [enrofloxazine]	++
Oc1cc(Cl)ccc1Oc1ccc(Cl)cc1Cl [triclosan (Irgasan), 2,4,4′-trichloro-2′-hydroxydiphenyl ether]	++
CCCCN1CCCCC1C(=O)Nc1c(C)cccc1C (stereo not shown) [bupivacaine]	+
Cc1ccc(C(C)C)c(O)c1 [thymol]	++
